For this data set, the system named is HLA molecules from shock-frozen tissue samples. As to the kind of experiment: Identification and relative quantitation of tumor associated peptides presented on the cell surface by LC-MS (XPRESIDENT). Also on record: species or system human. The following applies: all indications on which the peptide was identified at least once, independent of the HLA typing of the sample or the antibody used.

This note sets out measurements from patent US11957716B2 (Immatics Biotechnologies GmbH, priority 2021, dated 2024).

“138 (RTLPLEGSPK; listed as Homo sapiens) [compound 138]”: the “Peptide presentation on cancer types” value was “BRCA, CCC, GBM, NSCLC, PACA, PRCA, UEC”.
Next, “139 (EEGRIITKW; listed as Homo sapiens) [compound 139]”: “BRCA, CRC, CCC, GBC, HCC, HNSCC, MEL, NSCLC, OSCAR, PACA, RCC, UBC”; “140 (QPAPQPLL; listed as Homo sapiens) [compound 140]”: “BRCA, CRC, HNSCC, NHL, OSCAR, RCC, SCLC, UBC”; “141 (REVAGASAL; listed as Homo sapiens) [compound 141]”: “NSCLC, PACA”.
With “142 (YMLEMDNSMKI; listed as Homo sapiens) [compound 142]” the entry was “CCC, CRC, NSCLC, PACA”.
With “143 (AVLGALLRH; listed as Homo sapiens) [compound 143]” the entry was “BRCA, GC, GBC, HCC, NSCLC, OSCARPACA, PRCA, RCC, SCLC”; with “144 (IIVPSFYK; listed as Homo sapiens) [compound 144]”, “CCC, CRC, GBC, GBM, GC, HCC, MEL, NSCLC, RCC”; with “145 (HLFSVLSAI; listed as Homo sapiens) [compound 145]”, “BRCA, CCC, CLL, CRC, GBC, GC, HCC, HNSCC, MEL, NHL, NSCLC, OC, OSCAR, PACA, RCC, SCLC”.
Consider “146 (KVLVDFLLK; listed as Homo sapiens) [compound 146]”, for which the “Peptide presentation on cancer types” value was “AML, BRCA, CCC, CRC, HNSCC, MEL, NHL, RCC, SCLC, UBC”.
Next, “147 (VEAPHLPSF; listed as Homo sapiens) [compound 147]”: “BRCA, CCC, CRC, GBC, GBM, GC, HCC, HNSCC, MEL, NHL, NSCLC, OC, OSCAR, PACA, RCC, SCLC, UBC, UEC”; “148 (SVYMATTLK; listed as Homo sapiens) [compound 148]”: “NSCLC, OC, PACA, UBC, UEC”.
Regarding “149 (SMNSKALRWK; listed as Homo sapiens) [compound 149]”, the “Peptide presentation on cancer types” value is listed as “CCC, MEL, NHL”.
With “150 (IVFLLQQGEK; listed as Homo sapiens) [compound 150]” the entry was “AML, BRCA, CCC, CRC, GC, MEL, NHL, NSCLC, OSCAR, PACA, SCLC, UBC, UEC”.
Next, “151 (AVFVNWEQTKK; listed as Homo sapiens) [compound 151]”: “HNSCC, MEL, NHL, NSCLC, OSCAR”.
With “152 (KIMEILNLK; listed as Homo sapiens) [compound 152]” the entry was “AML, GC, MEL, NHL, NSCLC, OC, OSCAR, RCC, UBC, UEC”; with “153 (ALNLSRLTV; listed as Homo sapiens) [compound 153]”, “HCC, NSCLC, OSCAR, MEL, PRCA, HNSCC, NHL, RCC, CRC, GC, OC, CLL”; with “154 (TVTSAIVNR; listed as Homo sapiens) [compound 154]”, “CRC, GBC, GC, PACA, PRCA, SCLC, UBC”.
Turning to “155 (MPWVLMSPF; listed as Homo sapiens) [compound 155]”, the “Peptide presentation on cancer types” value is given as “AML, CRC, NHL, NSCLC, OC, SCLC”.
“156 (SLRVPSPAL; listed as Homo sapiens) [compound 156]”: the “Peptide presentation on cancer types” value is recorded as “BRCA, CRC, HNSCC, NHL, NSCLC, PRCA, RCC, UEC”.
With “157 (APLRAGWAA; listed as Homo sapiens) [compound 157]” the entry was “CCC, GC, GBC, HCC, NHL, PACA, RCC”; with “158 (FQLSGPVTF; listed as Homo sapiens) [compound 158]”, “BRCA, CRC, GBC, GC, NSCLC, OC, UEC”; with “159 (ASAIPAGAK; listed as Homo sapiens) [compound 159]”, “CRC, HNSCC, OC, RCC”.
Next, “160 (EYLGSENVF; listed as Homo sapiens) [compound 160]”: “GC, PRCA”.
In the case of “161 (ILAASFQAR; listed as Homo sapiens) [compound 161]”, the “Peptide presentation on cancer types” value was “CRC, GBM, HCC, HNSCC, RCC, UBC”.
With “162 (LPVHGPLPLLL; listed as Homo sapiens) [compound 162]” the entry was “BRCA, CCC, CRC, GBC, GC, HCC, HNSCC, NSCLC, OC, SCLC, UEC”; with “163 (LWALAIPSL; listed as Homo sapiens) [compound 163]”, “BRCA, GBC, NHL, NSCLC, OC, UEC”; with “164 (SHSSPTVSF; listed as Homo sapiens) [compound 164]”, “GC, PRCA, RCC”.
For “165 (FYNPRPPLI; listed as Homo sapiens) [compound 165]”, the “Peptide presentation on cancer types” value was “GBC”.
With “166 (VIFLHQPPK; listed as Homo sapiens) [compound 166]” the entry was “MEL”; with “167 (FALGPIIKQL; listed as Homo sapiens) [compound 167]”, “GBC, MEL, NSCLC, OSCAR, PRCA, UEC”; with “168 (AEGPDHHSL; listed as Homo sapiens) [compound 168]”, “AML, CRC, GBC, GC, HCC, HNSCC, OC, RCC”.
In the case of “169 (RPQGVGPAA; listed as Homo sapiens) [compound 169]”, the “Peptide presentation on cancer types” value is “BRCA, GC, GBC, HNSCC, MEL, NSCLC, RCC, UBC”.
Next, “170 (LLDSWNILI; listed as Homo sapiens) [compound 170]”: “NHL, MEL, OC, PRCA”; “171 (NVSFEVSLLY; listed as Homo sapiens) [compound 171]”: “GC, HNSCC, NSCLC, OC, PACA, PRCA, RCC”.
Consider “172 (LLYKTLIIL; listed as Homo sapiens) [compound 172]”, for which the “Peptide presentation on cancer types” value is “AML, CRC, HCC, NHL, NSCLC, PACA, PRCA”.
Take “173 (IFTGRNAYF; listed as Homo sapiens) [compound 173]”: the “Peptide presentation on cancer types” value is “GBM, GC, HCC, NSCLC, OC, UBC, UEC”.
For “174 (LSGPVTFLR; listed as Homo sapiens) [compound 174]”, the “Peptide presentation on cancer types” value is given as “BRCA, CCC, OSCAR”.
Next, “175 (MPFLKVPPL; listed as Homo sapiens) [compound 175]”: “CLL, NHL, NSCLC, SCLC”; “176 (AFLLSLISL; listed as Homo sapiens) [compound 176]”: “BRCA, GC, MEL, NHL, NSCLC, OSCAR, UBC”.
Next, “177 (SYLKDHLSL; listed as Homo sapiens) [compound 177]”: “CLL, GC, NSCLC, UBC”; “178 (SLFGGLFTR; listed as Homo sapiens) [compound 178]”: “CCC, GBC, GC, HNSCC, NSCLC, UBC”.
With “179 (MIFSGVFLR; listed as Homo sapiens) [compound 179]” the entry was “AML, BRCA, CCC, GBC, GC, HCC, HNSCC, MEL, NSCLC, OC, OSCAR, RCC, PACA, UBC, UEC”; with “180 (QYLTYYPSF; listed as Homo sapiens) [compound 180]”, “CLL, CRC, NHL, NSCLC, OSCAR, PRCA, UBC, UEC”; with “181 (FDLNIGSAY; listed as Homo sapiens) [compound 181]”, “GBC, GC, HCC, HNSCC, NHL”.
In the case of “182 (RPSLPCRSF; listed as Homo sapiens) [compound 182]”, the “Peptide presentation on cancer types” value was “BRCA, HNSCC, NHL, NSCLC, OSCAR, RCC, PACA, UEC”.
“183 (VFVISGSHLF; listed as Homo sapiens) [compound 183]”: the “Peptide presentation on cancer types” value was “NHL, NSCLC, UBC, UEC”.
With “184 (VVHGGMSIF; listed as Homo sapiens) [compound 184]” the entry was “AML, BRCA, CCC, GC, NSCLC”; with “185 (MPAFLSRASAL; listed as Homo sapiens) [compound 185]”, “BRCA, CRC, GBC, GC, HNSCC, MEL, NSCLC, OSCAR, UBC”; with “186 (SQIKSPVVF; listed as Homo sapiens) [compound 186]”, “BRCA, CRC, GBM, GC, HCC, NSCLC, OC, RCC, SCLC”.
Turning to “187 (RLCPAAPTGK; listed as Homo sapiens) [compound 187]”, the “Peptide presentation on cancer types” value was “BRCA, HCC, HNSCC, NSCLC, OSCAR”.
With “188 (KLPFFTNFL; listed as Homo sapiens) [compound 188]” the entry was “BRCA, CCC, CLL, CRC, GBC, GC, HNSCC, MEL, NHL, NSCLC, PACA, RCC, UBC, UEC”; with “189 (IWRALGSLF; listed as Homo sapiens) [compound 189]”, “GC, MEL, NSCLC, UBC”.
Consider “190 (STQSSLLYLK; listed as Homo sapiens) [compound 190]”, for which the “Peptide presentation on cancer types” value is given as “CCC, NHL, NSCLC, OC, RCC”.
With “192 (IPLHFSTAF; listed as Homo sapiens) [compound 192]” the entry was “AML, BRCA, GBC, GC, HCC, HNSCC, NHL, NSCLC, OC, OSCAR, RCC, SCLC, UBC, UEC”; with “193 (ILQLITVNR; listed as Homo sapiens) [compound 193]”, “BRCA, CCC, CRC, GBC, GC, HCC, HNSCC, NSCLC, OC, OSCAR, PACA, RCC, SCLC, UBC, UEC”.
On to “194 (VLYPSHSSF; listed as Homo sapiens) [compound 194]”, for which the “Peptide presentation on cancer types” value is reported as “GBC, HCC”.
Next, “195 (AWNESSAWLL; listed as Homo sapiens) [compound 195]”: “CRC, HCC”; “196 (NSENLLVY; listed as Homo sapiens) [compound 196]”: “CCC, CRC, MEL, NHL, NSCLC”.
Next, “197 (HHTQLVFVF; listed as Homo sapiens) [compound 197]”: “NHL, NSCLC, OC, UBC”; “198 (MTYQQPFSNR; listed as Homo sapiens) [compound 198]”: “GBC, HCC, HNSCC, NHL, MEL, NSCLC, OC, OSCAR, UBC, UEC”; “199 (RAPLPLLLL; listed as Homo sapiens) [compound 199]”: “GC, HNSCC, NSCLC, UBC”.
Next, “200 (GLLGTLRVL; listed as Homo sapiens) [compound 200]”: “GBC, HCC, NSCLC, UBC”.
On to “201 (VWILQKVNLAF; listed as Homo sapiens) [compound 201]”, for which the “Peptide presentation on cancer types” value is recorded as “CCC, CRC, GBC, HCC, HNSCC, PRCA, UBC”.
